Laboratory results taken from the supplement of paper PMC12067093, “Discovery and optimisation of a covalent ligand for TRIM25 and its application to targeted protein ubiquitination” (Chemical Science, 2025).
Some of the results follow.

Chains of the proteins cited; added tags and fusions are not shown. Lines headed by an entry give the natural chain unless they say otherwise; changes in a name come on top.
UniProt Q9Y6K9, whole entry, looked up: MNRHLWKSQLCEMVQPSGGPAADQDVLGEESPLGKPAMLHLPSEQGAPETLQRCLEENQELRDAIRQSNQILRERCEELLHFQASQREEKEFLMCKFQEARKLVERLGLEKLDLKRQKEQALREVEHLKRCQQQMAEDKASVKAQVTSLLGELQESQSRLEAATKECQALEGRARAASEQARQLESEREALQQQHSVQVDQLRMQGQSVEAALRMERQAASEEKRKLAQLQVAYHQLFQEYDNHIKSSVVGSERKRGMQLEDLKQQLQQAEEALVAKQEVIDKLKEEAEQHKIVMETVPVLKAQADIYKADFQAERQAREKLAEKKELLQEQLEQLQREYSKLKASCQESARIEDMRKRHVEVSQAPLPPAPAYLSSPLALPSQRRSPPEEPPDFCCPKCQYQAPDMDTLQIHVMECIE
UniProt Q27J81, whole entry, looked up: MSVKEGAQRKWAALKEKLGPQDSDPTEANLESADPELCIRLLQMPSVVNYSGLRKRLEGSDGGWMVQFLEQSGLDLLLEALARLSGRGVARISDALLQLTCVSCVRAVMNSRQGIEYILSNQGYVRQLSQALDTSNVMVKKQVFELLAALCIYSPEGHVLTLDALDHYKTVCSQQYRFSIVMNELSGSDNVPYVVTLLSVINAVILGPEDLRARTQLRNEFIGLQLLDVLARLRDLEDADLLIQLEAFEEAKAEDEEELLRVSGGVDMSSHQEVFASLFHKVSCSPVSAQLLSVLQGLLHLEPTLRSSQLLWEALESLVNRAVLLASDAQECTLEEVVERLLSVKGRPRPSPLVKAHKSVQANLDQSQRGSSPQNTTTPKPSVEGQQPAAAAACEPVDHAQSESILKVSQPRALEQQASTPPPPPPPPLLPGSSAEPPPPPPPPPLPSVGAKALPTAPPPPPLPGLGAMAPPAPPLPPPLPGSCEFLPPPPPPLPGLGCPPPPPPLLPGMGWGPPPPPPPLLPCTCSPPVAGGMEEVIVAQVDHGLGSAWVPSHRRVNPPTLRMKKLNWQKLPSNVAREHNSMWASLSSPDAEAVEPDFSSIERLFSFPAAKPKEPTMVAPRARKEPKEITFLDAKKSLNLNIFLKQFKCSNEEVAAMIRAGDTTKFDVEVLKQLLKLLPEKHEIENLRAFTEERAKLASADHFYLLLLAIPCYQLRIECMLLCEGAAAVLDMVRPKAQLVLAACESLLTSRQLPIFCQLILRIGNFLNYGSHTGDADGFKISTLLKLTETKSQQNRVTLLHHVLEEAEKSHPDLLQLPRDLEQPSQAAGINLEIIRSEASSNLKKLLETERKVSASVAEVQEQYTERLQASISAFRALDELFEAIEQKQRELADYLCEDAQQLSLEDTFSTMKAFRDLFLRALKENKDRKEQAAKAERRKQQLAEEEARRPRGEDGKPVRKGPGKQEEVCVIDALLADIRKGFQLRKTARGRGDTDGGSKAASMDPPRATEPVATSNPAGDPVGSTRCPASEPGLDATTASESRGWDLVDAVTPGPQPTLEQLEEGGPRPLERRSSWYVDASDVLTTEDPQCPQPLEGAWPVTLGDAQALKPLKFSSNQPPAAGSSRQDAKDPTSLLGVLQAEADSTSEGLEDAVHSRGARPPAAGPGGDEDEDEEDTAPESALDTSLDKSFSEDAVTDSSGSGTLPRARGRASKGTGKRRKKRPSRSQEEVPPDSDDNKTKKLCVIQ
UniProt P41252: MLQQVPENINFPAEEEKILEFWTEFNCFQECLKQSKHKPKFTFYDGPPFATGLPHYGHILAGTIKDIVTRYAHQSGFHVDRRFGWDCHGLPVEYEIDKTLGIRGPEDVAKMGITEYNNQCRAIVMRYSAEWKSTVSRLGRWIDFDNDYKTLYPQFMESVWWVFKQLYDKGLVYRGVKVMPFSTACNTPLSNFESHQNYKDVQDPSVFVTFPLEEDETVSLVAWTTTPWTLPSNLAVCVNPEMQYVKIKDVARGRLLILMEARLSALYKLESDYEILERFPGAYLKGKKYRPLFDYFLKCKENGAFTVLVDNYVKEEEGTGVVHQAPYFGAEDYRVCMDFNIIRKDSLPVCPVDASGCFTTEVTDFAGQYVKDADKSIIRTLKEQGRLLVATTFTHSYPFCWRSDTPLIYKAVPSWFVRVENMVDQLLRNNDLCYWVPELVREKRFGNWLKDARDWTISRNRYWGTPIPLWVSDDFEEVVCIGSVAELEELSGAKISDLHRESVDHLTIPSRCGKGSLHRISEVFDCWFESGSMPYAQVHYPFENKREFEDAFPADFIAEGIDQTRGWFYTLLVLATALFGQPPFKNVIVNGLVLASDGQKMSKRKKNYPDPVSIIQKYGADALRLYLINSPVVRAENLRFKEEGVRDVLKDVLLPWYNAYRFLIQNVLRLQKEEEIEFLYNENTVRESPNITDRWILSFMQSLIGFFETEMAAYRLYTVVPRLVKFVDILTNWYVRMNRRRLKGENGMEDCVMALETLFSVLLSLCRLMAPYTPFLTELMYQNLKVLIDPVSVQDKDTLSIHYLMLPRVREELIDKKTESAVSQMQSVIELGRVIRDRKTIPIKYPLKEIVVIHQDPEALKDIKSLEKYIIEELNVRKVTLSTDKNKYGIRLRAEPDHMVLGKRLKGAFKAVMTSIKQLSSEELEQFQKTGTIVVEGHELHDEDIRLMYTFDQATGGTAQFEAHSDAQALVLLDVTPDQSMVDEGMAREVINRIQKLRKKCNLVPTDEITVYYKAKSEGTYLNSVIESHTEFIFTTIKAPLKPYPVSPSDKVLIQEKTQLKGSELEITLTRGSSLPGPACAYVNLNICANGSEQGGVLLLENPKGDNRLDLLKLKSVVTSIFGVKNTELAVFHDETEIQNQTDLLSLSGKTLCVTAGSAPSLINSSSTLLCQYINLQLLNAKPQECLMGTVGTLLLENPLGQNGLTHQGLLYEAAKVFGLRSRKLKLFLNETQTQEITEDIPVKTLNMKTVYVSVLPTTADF
UniProt P32942: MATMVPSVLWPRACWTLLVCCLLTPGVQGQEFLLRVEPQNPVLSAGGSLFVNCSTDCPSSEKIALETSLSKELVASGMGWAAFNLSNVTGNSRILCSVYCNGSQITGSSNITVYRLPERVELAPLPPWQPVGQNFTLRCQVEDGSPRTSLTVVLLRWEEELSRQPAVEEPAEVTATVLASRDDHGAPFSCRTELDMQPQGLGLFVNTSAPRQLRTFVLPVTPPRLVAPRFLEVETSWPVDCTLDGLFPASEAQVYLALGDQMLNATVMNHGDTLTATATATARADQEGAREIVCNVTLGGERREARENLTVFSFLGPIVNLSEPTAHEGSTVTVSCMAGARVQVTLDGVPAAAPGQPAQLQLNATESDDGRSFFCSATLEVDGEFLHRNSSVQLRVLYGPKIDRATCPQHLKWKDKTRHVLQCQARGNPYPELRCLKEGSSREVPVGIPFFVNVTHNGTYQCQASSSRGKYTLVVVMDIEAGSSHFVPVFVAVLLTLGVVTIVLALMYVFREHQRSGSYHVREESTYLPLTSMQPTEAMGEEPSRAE
UniProt Q13422: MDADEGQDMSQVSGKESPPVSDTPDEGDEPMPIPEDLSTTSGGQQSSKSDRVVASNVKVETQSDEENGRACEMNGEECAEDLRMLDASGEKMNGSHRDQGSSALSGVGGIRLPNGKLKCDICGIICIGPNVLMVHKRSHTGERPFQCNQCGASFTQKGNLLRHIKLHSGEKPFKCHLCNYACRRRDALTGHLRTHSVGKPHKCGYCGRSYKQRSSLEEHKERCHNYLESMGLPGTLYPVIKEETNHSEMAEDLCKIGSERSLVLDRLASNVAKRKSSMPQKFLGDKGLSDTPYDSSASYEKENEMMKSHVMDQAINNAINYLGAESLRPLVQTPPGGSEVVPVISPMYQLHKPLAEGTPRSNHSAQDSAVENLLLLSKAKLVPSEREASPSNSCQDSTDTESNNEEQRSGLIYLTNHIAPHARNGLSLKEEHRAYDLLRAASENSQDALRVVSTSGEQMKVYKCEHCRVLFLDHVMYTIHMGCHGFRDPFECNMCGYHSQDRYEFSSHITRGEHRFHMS
UniProt P11717, whole entry, looked up: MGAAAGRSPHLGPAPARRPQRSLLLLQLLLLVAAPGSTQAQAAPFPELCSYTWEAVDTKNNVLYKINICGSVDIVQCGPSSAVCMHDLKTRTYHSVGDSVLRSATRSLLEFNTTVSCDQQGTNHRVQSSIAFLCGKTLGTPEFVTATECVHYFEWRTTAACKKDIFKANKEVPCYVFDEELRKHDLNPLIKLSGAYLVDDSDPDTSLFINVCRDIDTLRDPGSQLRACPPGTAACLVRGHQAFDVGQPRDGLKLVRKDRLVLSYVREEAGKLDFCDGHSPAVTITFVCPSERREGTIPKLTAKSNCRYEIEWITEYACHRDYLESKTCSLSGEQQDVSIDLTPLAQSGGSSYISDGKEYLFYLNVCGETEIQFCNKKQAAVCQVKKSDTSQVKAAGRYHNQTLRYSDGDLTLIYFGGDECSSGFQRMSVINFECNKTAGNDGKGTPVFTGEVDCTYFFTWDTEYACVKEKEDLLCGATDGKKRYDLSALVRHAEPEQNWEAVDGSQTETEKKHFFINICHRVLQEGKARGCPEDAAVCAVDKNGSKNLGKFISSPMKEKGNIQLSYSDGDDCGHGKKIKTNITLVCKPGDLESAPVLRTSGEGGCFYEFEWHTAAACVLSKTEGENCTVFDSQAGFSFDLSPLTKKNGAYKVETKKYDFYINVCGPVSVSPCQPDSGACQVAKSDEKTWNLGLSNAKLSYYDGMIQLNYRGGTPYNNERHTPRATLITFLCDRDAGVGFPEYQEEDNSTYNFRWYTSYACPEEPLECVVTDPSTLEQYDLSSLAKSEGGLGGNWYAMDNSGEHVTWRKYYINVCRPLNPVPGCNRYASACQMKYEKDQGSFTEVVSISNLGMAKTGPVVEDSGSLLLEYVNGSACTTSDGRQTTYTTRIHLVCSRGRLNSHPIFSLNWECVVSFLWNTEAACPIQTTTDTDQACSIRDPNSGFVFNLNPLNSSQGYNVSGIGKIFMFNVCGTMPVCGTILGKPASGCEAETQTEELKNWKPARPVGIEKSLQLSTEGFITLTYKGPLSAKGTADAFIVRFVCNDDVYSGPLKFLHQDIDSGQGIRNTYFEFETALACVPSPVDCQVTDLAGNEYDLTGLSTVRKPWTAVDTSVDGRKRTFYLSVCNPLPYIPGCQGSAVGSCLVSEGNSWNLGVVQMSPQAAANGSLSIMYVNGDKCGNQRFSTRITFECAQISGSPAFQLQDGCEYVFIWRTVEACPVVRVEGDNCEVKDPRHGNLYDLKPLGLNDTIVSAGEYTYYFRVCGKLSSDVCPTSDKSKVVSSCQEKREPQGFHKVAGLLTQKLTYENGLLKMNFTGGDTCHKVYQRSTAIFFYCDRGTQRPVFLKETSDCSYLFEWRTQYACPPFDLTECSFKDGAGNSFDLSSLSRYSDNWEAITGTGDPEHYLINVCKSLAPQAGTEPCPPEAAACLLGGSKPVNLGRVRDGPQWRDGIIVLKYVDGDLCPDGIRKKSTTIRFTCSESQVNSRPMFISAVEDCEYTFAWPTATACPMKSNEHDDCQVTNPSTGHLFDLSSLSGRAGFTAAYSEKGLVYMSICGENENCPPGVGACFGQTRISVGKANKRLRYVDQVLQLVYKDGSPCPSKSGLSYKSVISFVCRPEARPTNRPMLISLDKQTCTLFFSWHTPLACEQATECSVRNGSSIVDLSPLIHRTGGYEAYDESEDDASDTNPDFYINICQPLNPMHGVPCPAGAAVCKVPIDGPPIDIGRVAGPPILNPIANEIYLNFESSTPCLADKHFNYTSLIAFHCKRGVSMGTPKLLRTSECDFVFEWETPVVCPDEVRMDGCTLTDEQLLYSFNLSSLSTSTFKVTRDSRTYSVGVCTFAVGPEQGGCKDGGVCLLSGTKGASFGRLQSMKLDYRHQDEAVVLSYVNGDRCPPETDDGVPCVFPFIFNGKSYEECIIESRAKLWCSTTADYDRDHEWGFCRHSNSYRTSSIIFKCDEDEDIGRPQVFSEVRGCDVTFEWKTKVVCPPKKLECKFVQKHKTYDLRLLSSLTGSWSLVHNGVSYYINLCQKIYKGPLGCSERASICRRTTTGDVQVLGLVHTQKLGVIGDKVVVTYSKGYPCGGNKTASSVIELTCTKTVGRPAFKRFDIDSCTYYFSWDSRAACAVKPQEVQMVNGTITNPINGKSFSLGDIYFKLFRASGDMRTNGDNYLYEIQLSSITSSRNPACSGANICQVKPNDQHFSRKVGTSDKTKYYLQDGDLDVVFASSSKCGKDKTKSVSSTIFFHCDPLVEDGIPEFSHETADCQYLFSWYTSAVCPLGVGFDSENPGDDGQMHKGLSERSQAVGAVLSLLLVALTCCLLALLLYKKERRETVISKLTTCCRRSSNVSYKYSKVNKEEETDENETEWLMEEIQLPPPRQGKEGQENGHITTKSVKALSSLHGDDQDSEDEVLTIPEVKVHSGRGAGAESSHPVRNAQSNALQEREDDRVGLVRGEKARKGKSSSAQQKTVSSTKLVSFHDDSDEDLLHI

The targets below were run with Cc1cc(ccc1-c1ccccc1)C(=O)N1CCCN(CC1)C(=O)CCl [compound 10] (assay: probe-labelled cysteine peptide fold change vs DMSO (competition) (log2 fold change); higher = less target engagement (more negative = stronger competition)). Settings: 50 µM; THP-1; incubation time: 4 h.
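Further: competitive profiling in live THP-1 cells: cysteine peptides tagged with an iodoacetamide desthiobiotin (IA-DTB) probe, intensity after compound treatment relative to DMSO-treated cells.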

Going from “IL6R_P08887_121_AGRPAGTVHLLVDVPPEEPQLSCFR (UniProt P08887)” to “IKBKG_Q9Y6K9_131_CQQQMAEDK (UniProt Q9Y6K9)”, the “probe-labelled cysteine peptide fold change” value falls from -0.192 to -0.388.

Compared with “INF2_Q27J81_101_ISDALLQLTCVSCVR (UniProt Q27J81)”, “INF2_Q27J81_104_ISDALLQLTCVSCVR (UniProt Q27J81)” is higher in “probe-labelled cysteine peptide fold change” value: -0.052 for the first, 0.713 for the second.

Compared with “IARS2_Q9NSE4_211_WGIMADWNNCYYTFDGK (UniProt Q9NSE4)”, “IARS_P41252_87_RFGWDCHGLPVEYEIDK (UniProt P41252)” is lower in “probe-labelled cysteine peptide fold change” value: 0.59 for the first, -0.156 for the second.

Going from “HYAL3_O43820_361_CHGHGR (UniProt O43820)” to “IARS_P41252_526_ISEVFDCWFESGSMPYAQVHYPFENKR (UniProt P41252)”, the “probe-labelled cysteine peptide fold change” value falls from -0.0062 to -0.0922.

Compared with “IFT27_Q9BW83_149_AWALGQGLECFETSVK (UniProt Q9BW83)”, “IDI1_Q13907_39_NCHLNENIEK (UniProt Q13907)” is lower in “probe-labelled cysteine peptide fold change” value: 0.129 for the first, -0.178 for the second.

First: IMPDH2_P12268_468_FVPYLIAGIQHSCQDIGAK (UniProt P12268)
Second: ICAM3_P32942_190_DDHGAPFSCR (UniProt P32942)
The “probe-labelled cysteine peptide fold change” value of the first is higher: 0.0841 for the first, -0.0129 for the second.

Going from “IARS2_Q9NSE4_1005_CAEVVSGK (UniProt Q9NSE4)” to “INPP5B_P32019_678_EFCFQNVK (UniProt P32019)”, the “probe-labelled cysteine peptide fold change” value rises from -0.434 to 0.179.

First: IKZF1_Q13422_71_ACEMNGEECAEDLR (UniProt Q13422)
Second: IDH2_P48735_154_NILGGTVFREPIICK (UniProt P48735)
The “probe-labelled cysteine peptide fold change” value of the first is lower: -0.304 for the first, 0.00956 for the second.

Compared with “IMPACT_Q9P2X3_195_STFQAHLAPVVCPK (UniProt Q9P2X3)”, “ILF3_Q12906_278_RVLECLASGIVMPDGSGIYDPCEK (UniProt Q12906)” is higher in “probe-labelled cysteine peptide fold change” value: -1.61 for the first, -0.227 for the second.

Going from “IGF2BP2_Q9Y6M1_255_KENSGAAEKPVTIHATPEGTSEACR (UniProt Q9Y6M1)” to “IGF2R_P11717_475_EKEDLLCGATDGK (UniProt P11717)”, the “probe-labelled cysteine peptide fold change” value rises from -0.299 to -0.183.

Compared with “ILKAP_Q9H0C8_301_CGVTSVPDIRR (UniProt Q9H0C8)”, “IKZF1_Q13422_175+178_CHLCNYACR (UniProt Q13422)” is lower in “probe-labelled cysteine peptide fold change” value: -0.246 for the first, -0.482 for the second.

Going from “ILKAP_Q9H0C8_221_DGSTATCVLAVDNILYIANLGDSR (UniProt Q9H0C8)” to “ILK_Q13418_42_LWLDNTENDLNQGDDHGFSPLHWACR (UniProt Q13418)”, the “probe-labelled cysteine peptide fold change” value rises from -0.322 to -0.0498.

First: HUWE1_Q7Z6Z7_3361_ETNCESDRER (UniProt Q7Z6Z7)
Second: ICAM3_P32942_407_ATCPQHLK (UniProt P32942)
The “probe-labelled cysteine peptide fold change” value of the first is lower: -0.258 for the first, -0.234 for the second.

First: IFT122_Q9HBG6_784_AIEICGDHGWVDMLIDIAR (UniProt Q9HBG6)
Second: HUWE1_Q7Z6Z7_3658_RAQCETLSPDGLPEEQPQTTK (UniProt Q7Z6Z7)
The “probe-labelled cysteine peptide fold change” value of the first is higher: -0.234 for the first, -0.635 for the second.

Compared with “IFT81_Q8WYA0_557_LREECLQEESR (UniProt Q8WYA0)”, “IGF2R_P11717_134_VQSSIAFLCGK (UniProt P11717)” is lower in “probe-labelled cysteine peptide fold change” value: 0.191 for the first, -0.697 for the second.

Compared with “INPP5A_Q14642_53_PHFMALHCQEFGGK (UniProt Q14642)”, “IARS_P41252_185_VMPFSTACNTPLSNFESHQNYK (UniProt P41252)” is lower in “probe-labelled cysteine peptide fold change” value: 0.162 for the first, 0.0401 for the second.

Compared with “IGF2R_P11717_572_GNIQLSYSDGDDCGHGK (UniProt P11717)”, “IDH1_O75874_73_CATITPDEK (UniProt O75874)” is higher in “probe-labelled cysteine peptide fold change” value: -0.0311 for the first, -0.0125 for the second.

Compared with “IDE_P14735_171_FAQFFLCPLFDESCK (UniProt P14735)”, “IKBKG_Q9Y6K9_54_CLEENQELR (UniProt Q9Y6K9)” is lower in “probe-labelled cysteine peptide fold change” value: 0.142 for the first, -0.046 for the second.

Going from “IARS_P41252_336_VCMDFNIIRK (UniProt P41252)” to “INPP5D_Q92835_1050_KEPPPCPEPGILSPSIVLTK (UniProt Q92835)”, the “probe-labelled cysteine peptide fold change” value rises from -0.432 to -0.212.
